For the assay, the system named is miR-222. The assay is described as follows: miR-222 expression by qPCR after MYC inhibition. As to conditions: DHL4 cells, 50µM, 24 hours, vs DMSO, qPCR 2^-ΔΔCT.

Structures were worked out from names or drawings and are uncertain.

Regarding `CCc1ccc(C=C2SC(=S)NC2=O)cc1`, the miR-222 expression result is recorded as “markedly decreased levels of miR-222”.

Source of the values: patent publication EP3967307B1, “PIM KINASE INHIBITORS TO AUGMENT THE EFFICACY OF ANTI-CD20 ANTIBODY-BASED THERAPIES FOR USE IN THE TREATMENT OF HEMATOLOGIC MALIGNANCIES” (dated 2026).
